This passage reports binding results from publication PMC11633468.

Protein sequences, listed by entry. Tags and fused reporters are not part of them.
UniProt O95714: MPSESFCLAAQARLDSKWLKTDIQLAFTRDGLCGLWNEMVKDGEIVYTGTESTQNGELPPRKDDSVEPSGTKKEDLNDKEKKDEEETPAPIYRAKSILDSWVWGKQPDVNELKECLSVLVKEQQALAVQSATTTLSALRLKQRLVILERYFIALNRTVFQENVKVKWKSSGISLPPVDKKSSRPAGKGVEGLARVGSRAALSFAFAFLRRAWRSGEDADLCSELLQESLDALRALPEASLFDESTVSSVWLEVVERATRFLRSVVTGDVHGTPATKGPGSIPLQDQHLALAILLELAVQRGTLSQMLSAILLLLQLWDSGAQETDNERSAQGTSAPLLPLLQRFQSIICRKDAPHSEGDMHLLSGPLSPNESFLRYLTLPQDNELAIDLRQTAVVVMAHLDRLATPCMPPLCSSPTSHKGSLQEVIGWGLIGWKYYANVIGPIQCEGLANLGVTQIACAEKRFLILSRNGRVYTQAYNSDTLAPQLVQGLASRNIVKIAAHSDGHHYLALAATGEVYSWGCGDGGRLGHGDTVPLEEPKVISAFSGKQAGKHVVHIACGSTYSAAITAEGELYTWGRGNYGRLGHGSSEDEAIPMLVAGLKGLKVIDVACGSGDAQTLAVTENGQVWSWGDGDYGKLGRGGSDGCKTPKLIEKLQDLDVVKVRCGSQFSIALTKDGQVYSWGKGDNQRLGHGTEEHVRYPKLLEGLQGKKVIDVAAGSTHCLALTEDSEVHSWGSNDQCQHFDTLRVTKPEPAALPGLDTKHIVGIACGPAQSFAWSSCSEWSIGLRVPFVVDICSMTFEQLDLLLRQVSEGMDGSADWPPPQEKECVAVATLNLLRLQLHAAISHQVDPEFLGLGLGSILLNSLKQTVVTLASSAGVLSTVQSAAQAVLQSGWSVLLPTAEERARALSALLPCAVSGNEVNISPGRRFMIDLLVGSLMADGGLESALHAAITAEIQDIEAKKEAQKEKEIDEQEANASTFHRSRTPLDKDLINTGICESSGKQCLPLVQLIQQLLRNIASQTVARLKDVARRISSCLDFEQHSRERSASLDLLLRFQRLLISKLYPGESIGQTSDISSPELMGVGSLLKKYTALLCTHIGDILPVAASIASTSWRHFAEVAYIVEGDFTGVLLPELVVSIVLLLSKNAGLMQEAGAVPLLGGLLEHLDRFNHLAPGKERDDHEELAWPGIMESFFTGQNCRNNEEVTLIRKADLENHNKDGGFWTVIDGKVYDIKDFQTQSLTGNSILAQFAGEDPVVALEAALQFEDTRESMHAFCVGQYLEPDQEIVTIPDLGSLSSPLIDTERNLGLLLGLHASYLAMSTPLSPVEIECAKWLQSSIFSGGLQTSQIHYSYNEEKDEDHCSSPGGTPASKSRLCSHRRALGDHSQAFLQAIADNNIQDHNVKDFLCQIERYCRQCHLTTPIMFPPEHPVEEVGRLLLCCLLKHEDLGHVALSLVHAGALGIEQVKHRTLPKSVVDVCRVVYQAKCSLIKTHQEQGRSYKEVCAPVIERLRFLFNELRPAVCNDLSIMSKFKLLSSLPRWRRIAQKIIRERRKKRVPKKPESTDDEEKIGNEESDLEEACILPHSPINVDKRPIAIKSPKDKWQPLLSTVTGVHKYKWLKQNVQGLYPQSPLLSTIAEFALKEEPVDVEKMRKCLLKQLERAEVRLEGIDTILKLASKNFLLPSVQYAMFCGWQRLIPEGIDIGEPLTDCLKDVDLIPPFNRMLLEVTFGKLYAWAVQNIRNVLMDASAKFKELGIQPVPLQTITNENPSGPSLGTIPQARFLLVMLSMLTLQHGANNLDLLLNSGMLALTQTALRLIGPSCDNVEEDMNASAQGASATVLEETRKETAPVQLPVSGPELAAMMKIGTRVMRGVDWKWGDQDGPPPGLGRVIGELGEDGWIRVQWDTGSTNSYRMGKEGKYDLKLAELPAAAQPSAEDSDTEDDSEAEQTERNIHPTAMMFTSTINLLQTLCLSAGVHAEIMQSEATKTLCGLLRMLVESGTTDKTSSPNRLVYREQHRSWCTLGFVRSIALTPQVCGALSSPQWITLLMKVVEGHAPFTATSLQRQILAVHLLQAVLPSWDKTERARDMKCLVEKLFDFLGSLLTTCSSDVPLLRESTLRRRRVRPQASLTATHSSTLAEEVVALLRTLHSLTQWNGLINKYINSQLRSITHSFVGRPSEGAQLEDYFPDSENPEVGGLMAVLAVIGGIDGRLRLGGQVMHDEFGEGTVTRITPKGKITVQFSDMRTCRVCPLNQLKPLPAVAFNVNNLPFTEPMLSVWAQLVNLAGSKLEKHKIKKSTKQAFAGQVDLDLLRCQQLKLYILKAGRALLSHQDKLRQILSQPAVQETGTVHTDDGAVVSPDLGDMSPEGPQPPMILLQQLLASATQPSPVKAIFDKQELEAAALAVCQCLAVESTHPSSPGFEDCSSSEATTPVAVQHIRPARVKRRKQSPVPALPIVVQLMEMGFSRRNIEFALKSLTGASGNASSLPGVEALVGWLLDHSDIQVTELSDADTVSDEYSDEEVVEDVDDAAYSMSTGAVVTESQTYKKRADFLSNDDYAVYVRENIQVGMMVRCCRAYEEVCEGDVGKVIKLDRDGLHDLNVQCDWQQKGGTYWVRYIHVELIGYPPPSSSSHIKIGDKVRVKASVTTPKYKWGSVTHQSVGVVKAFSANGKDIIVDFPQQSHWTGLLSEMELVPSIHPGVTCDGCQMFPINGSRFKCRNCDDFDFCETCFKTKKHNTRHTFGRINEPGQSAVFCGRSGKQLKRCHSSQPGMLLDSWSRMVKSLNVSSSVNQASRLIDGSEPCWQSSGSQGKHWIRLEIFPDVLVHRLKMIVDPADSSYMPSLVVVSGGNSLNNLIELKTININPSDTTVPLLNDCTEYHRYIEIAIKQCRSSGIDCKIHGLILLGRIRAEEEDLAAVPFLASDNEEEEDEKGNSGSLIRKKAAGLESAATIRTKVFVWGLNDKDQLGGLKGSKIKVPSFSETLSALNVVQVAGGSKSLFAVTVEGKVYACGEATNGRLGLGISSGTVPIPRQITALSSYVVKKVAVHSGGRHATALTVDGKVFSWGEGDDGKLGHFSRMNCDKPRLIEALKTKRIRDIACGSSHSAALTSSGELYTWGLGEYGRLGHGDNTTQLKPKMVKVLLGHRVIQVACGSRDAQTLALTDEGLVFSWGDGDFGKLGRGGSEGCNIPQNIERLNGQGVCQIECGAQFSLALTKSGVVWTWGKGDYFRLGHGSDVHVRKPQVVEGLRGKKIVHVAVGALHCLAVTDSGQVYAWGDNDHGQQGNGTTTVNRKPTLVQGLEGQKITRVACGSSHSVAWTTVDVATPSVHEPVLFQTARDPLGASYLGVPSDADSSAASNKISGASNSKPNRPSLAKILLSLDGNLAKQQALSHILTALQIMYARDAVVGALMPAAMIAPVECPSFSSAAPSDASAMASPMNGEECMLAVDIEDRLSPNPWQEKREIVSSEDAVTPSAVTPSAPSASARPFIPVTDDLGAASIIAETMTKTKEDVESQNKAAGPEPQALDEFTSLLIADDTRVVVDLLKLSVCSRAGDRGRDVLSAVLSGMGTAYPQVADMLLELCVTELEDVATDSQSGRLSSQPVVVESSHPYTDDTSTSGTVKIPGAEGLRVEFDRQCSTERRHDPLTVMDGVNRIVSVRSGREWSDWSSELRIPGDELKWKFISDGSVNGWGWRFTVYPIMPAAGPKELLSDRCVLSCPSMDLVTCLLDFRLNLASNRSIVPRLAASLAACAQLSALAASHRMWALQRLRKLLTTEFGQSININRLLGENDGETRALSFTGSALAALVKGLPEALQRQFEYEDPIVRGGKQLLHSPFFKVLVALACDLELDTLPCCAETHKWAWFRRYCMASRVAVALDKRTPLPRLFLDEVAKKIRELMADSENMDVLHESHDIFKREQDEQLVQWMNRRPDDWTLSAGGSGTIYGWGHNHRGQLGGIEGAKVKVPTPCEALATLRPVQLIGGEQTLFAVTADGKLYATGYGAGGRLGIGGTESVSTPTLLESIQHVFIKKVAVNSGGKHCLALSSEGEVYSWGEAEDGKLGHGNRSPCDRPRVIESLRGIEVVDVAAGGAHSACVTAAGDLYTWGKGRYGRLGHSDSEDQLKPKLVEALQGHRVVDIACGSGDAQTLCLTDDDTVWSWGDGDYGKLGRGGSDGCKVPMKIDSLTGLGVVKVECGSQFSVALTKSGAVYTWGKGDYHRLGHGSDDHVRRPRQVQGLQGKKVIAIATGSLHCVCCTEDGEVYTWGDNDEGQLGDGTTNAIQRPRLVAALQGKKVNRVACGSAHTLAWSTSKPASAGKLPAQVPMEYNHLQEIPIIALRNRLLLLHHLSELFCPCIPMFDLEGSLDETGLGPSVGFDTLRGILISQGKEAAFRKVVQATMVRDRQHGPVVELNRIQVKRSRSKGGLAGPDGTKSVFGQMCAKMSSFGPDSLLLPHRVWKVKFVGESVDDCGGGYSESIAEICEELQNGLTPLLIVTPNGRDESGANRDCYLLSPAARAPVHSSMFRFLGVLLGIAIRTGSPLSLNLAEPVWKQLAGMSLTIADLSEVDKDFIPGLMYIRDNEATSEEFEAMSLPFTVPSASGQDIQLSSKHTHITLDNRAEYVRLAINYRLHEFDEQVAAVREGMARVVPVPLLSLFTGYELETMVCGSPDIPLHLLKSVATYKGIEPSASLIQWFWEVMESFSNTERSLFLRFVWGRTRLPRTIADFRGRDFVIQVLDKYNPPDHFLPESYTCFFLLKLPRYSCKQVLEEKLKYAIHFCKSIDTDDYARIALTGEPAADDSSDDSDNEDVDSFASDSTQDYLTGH
UniProt P35222: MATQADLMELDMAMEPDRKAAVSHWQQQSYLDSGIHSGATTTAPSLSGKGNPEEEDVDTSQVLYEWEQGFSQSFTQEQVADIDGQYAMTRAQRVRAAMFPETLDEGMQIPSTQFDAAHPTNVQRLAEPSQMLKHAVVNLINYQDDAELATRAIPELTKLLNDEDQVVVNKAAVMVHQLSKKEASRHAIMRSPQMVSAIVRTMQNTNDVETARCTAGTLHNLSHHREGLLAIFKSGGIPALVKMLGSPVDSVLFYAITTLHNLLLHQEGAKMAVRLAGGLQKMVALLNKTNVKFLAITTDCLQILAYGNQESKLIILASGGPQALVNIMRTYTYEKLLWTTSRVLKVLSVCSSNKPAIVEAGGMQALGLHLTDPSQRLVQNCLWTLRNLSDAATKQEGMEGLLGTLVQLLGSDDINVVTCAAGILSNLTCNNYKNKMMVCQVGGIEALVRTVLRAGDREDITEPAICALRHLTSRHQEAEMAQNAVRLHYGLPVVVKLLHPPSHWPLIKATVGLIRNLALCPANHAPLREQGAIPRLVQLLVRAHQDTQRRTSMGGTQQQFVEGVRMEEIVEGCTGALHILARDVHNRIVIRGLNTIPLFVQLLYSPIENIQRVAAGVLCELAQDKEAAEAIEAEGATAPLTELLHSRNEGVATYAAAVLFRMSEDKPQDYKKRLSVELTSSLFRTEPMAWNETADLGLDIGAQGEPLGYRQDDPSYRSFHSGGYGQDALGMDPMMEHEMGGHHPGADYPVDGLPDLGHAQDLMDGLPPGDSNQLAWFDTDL

The target of test [1] is HECT and RLD domain-containing E3 ubiquitin protein ligase 2 (HERC2) (human (endogenous in HepaRG)) (UniProt O95714). Put plainly: co-IP; endogenous proteins in HepaRG whole-cell lysates; 1 µg antibody at 4 °C overnight, protein A/G agarose 2 hours at 4 °C, SDS-PAGE and blot; cells treated with 20 mM APAP for 6 hours; for β-catenin and GSK3β HERC2-deficient (Cas9 HERC2) cells.

Test [2] concerns the target HERC2-HA (UniProt O95714). Put plainly: co-IP; HEK293T cells co-transfected with HERC2-HA and β-catenin-FLAG plasmids; immunoprecipitation with anti-HA magnetic beads, blot with anti-FLAG antibody.

Results are given in words; binding and its absence hold for the method and conditions named. Binding seen in cells or lysates may run through a third protein. Some results given as binding are weak or reduced against the parent protein; the word gives no strength.

On to “β-catenin (CTNNB1) (from UniProt P35222 1-781)”, for which the binding entry in test [1] is recorded as “binds”. Regarding “β-catenin-FLAG (from UniProt P35222 1-781)”, the binding result in test [2] is reported as “binds”.
